Data: PubChem BioAssay AID256 (DTP/NCI, 2004)
The list does not hold the whole screen: it is rich in T/C values a quarter to a half above the control, in often repeated tests (any T/C) and in doses without a T/C. Further doses and runs are listed elsewhere. T/C: endpoint of the treated group in % of that of the vehicle group. Some doses have a count of surviving animals in place of a T/C: the source files T/C as zero there, which appears to mark a toxic dose or a test without result, not a measured value. Some doses without a T/C left all or most animals alive at the check, yet need not have been tolerated: the source hardly ever lists a survival T/C far under the control, and the zero likely stands for such cases as well. Counts of survivors are from the toxicity check (mostly the fifth day) where no day follows; animals may have died later. Schedule codes are those of the source, taken here to give the interval after Q, in days (D) or hours (H), and the number of doses after X. Some molecules as drawn cover several salts, stereoisomers or complexes of the source; a dose is that of the sample tested. Signs of the kind (2×) stand for listed records that agree. Where survival is the endpoint, this PubChem deposit counts one and a half times the control or more as active, and values a quarter to a half above the control carry no call in these data; other NCI protocols may use other cut-offs. Some entries hold several experiments; the results are listed from low to high.

System: CD2F1 mice, L1210 leukemia ip, survival T/C
Assay: NCI In Vivo Anticancer Drug Screen. Data for tumor model L1210 Leukemia (intraperitoneal) in CD2F1 (CDF1) mice
Conditions: higher T/C = longer survival
Outline: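 In this screen, transplantable tumors were grown in mice given either the compound or its vehicle. Results were expressed as the treated measurement relative to the control measurement.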

[1] = T/C endpoint: mean survival time, dose: 200.0 mg/kg/injection, schedule: Q01DX009 (ip), vehicle: saline with Tween-80
[2] = T/C endpoint: mean survival time, dose: 400.0 mg/kg/injection, schedule: Q01DX009 (ip), vehicle: saline with Tween-80

In the case of `CCc1nc(N)nc(N)c1-c1ccc(Cl)cc1`, the survivor count (T/C endpoint: mean survival time, dose: 32.0 mg/kg/injection, schedule: Q03HX008 (ip), vehicle: saline) is reported as 1 of 10, the survivor count (T/C endpoint: mean survival time, dose: 32.0 mg/kg/injection, schedule: Q03HX016 (ip), vehicle: saline) is reported as 2 of 10 and the survivor count (T/C endpoint: mean survival time, dose: 32.0 mg/kg/injection, schedule: Q03HX024 (ip), vehicle: saline) is reported as 1 of 10. The survivor count (T/C endpoint: mean survival time, dose: 64.0 mg/kg/injection, schedule: Q03HX008 (ip), vehicle: saline) was 0 of 10, the survivor count (T/C endpoint: mean survival time, dose: 64.0 mg/kg/injection, schedule: Q03HX016 (ip), vehicle: saline) was 0 of 10 and the survivor count (T/C endpoint: mean survival time, dose: 64.0 mg/kg/injection, schedule: Q03HX024 (ip), vehicle: saline) was 0 of 10. The survivor count (T/C endpoint: mean survival time, dose: 128.0 mg/kg/injection, schedule: Q01DX001 (ip), vehicle: saline) was 5 of 10, the survivor count (T/C endpoint: mean survival time, dose: 128.0 mg/kg/injection, schedule: Q01DX001 (oral), vehicle: saline) was 1 of 10 and the survivor count (T/C endpoint: mean survival time, dose: 128.0 mg/kg/injection, schedule: Q01DX009 (ip), vehicle: saline) was 7 of 10. For the same molecule, the survivor count (T/C endpoint: mean survival time, dose: 128.0 mg/kg/injection, schedule: Q01DX009 (oral), vehicle: saline) was 5 of 10, the survivor count (T/C endpoint: mean survival time, dose: 128.0 mg/kg/injection, schedule: Q03HX008 (ip), vehicle: saline) was 0 of 10 and the survivor count (T/C endpoint: mean survival time, dose: 128.0 mg/kg/injection, schedule: Q03HX016 (ip), vehicle: saline) was 0 of 10. The survivor count (T/C endpoint: mean survival time, dose: 128.0 mg/kg/injection, schedule: Q04DX003 (ip), vehicle: saline) was 8 of 10, the survivor count (T/C endpoint: mean survival time, dose: 256.0 mg/kg/injection, schedule: Q01DX001 (ip), vehicle: saline) was 0 of 10 and the survivor count (T/C endpoint: mean survival time, dose: 256.0 mg/kg/injection, schedule: Q01DX001 (oral), vehicle: saline) was 0 of 10. For the same molecule, the survivor count (T/C endpoint: mean survival time, dose: 256.0 mg/kg/injection, schedule: Q01DX009 (oral), vehicle: saline) was 0 of 10, the survivor count (T/C endpoint: mean survival time, dose: 256.0 mg/kg/injection, schedule: Q04DX003 (ip), vehicle: saline) was 4 of 10 and the survivor count (T/C endpoint: mean survival time, dose: 256.0 mg/kg/injection, schedule: Q08DX002 (ip), vehicle: saline) was 3 of 10. The survivor count (T/C endpoint: mean survival time, dose: 512.0 mg/kg/injection, schedule: Q01DX001 (ip), vehicle: saline) was 2 of 10, the survivor count (T/C endpoint: mean survival time, dose: 512.0 mg/kg/injection, schedule: Q01DX001 (oral), vehicle: saline) was 0 of 10 and the survivor count (T/C endpoint: mean survival time, dose: 512.0 mg/kg/injection, schedule: Q01DX009 (oral), vehicle: saline) was 0 of 10. For the same molecule, the survivor count (T/C endpoint: mean survival time, dose: 512.0 mg/kg/injection, schedule: Q04DX003 (ip), vehicle: saline) was 0 of 10, the survivor count (T/C endpoint: mean survival time, dose: 512.0 mg/kg/injection, schedule: Q08DX002 (ip), vehicle: saline) was 0 of 10 and the survivor count (T/C endpoint: mean survival time, dose: 1024.0 mg/kg/injection, schedule: Q01DX001 (ip), vehicle: saline) was 0 of 10. The survivor count (T/C endpoint: mean survival time, dose: 1024.0 mg/kg/injection, schedule: Q01DX001 (oral), vehicle: saline) was 0 of 10 and the survivor count (T/C endpoint: mean survival time, dose: 1024.0 mg/kg/injection, schedule: Q08DX002 (ip), vehicle: saline) was 0 of 10.

In the case of `O=C1C(O)=C(c2ccccc2)C(=O)C(O)=C1c1ccccc1`, the survivor count (T/C endpoint: mean survival time, dose: 100.0 mg/kg/injection, schedule: Q01DX009 (ip), vehicle: saline) is reported as 3 of 10.

With `COc1cc2c[n+](C)c3c4cc5c(cc4ccc3c2cc1OC)OCO5` (tested in a mixture with another compound) the T/C (T/C endpoint: mean survival time, dose: 10.0 mg/kg/injection, schedule: Q01DX009 (ip), vehicle: saline) was 128 % of control, the T/C (T/C endpoint: mean survival time, dose: 20.0 mg/kg/injection, schedule: Q01DX009 (ip), vehicle: saline) was 132 % of control and the T/C (T/C endpoint: mean survival time, dose: 25.0 mg/kg/injection, schedule: Q01DX009 (ip), vehicle: Klucel (hydroxypropylcellulose) (HPC)) was 134 % of control. The T/C (T/C endpoint: mean survival time, dose: 40.0 mg/kg/injection, schedule: Q01DX009 (ip), vehicle: saline) was 139 % of control, the survivor count (T/C endpoint: mean survival time, dose: 50.0 mg/kg/injection, schedule: Q01DX009 (ip), vehicle: other) was 6 of 6 (2×) and the T/C (T/C endpoint: mean survival time, dose: 80.0 mg/kg/injection, schedule: Q01DX009 (ip), vehicle: saline) was 141 % of control. For the same molecule, the survivor count (T/C endpoint: mean survival time, dose: 100.0 mg/kg/injection, schedule: Q01DX009 (ip), vehicle: Klucel (hydroxypropylcellulose) (HPC)) was 3 of 6.

In the case of `CSc1ccc(N=C=C(c2ccccc2)c2ccccc2)cc1`, the survivor count (T/C endpoint: mean survival time, dose: 100.0 mg/kg/injection, schedule: Q01DX009 (ip), vehicle: saline with Tween-80) is reported as 0 of 6, the survivor count [1] is reported as 0 of 6 and the survivor count [2] is reported as 0 of 6.

`[Cl][Pt+2][Cl].[NH-]C1CCC1.[NH2-]` was tested, and the T/C (T/C endpoint: mean survival time, dose: 0.78 mg/kg/injection, schedule: Q04DX003 (ip), vehicle: water) was 128 % of control, the T/C (T/C endpoint: mean survival time, dose: 1.56 mg/kg/injection, schedule: Q04DX003 (ip), vehicle: water) was 132 % of control and the T/C (T/C endpoint: mean survival time, dose: 3.12 mg/kg/injection, schedule: Q04DX003 (ip), vehicle: saline) was 126 % of control. For the same molecule, the survivor count (T/C endpoint: mean survival time, dose: 12.5 mg/kg/injection, schedule: Q04DX003 (ip), vehicle: distilled water + Tween-80) was 2 of 6, the survivor count (T/C endpoint: mean survival time, dose: 12.5 mg/kg/injection, schedule: Q04DX003 (ip), vehicle: water) was 4 of 6 and the survivor count (T/C endpoint: mean survival time, dose: 25.0 mg/kg/injection, schedule: Q04DX003 (ip), vehicle: distilled water + Tween-80) was 0 of 6. For the same molecule, the survivor count (T/C endpoint: mean survival time, dose: 50.0 mg/kg/injection, schedule: Q04DX003 (ip), vehicle: distilled water + Tween-80) was 2 of 6, the survivor count (T/C endpoint: mean survival time, dose: 100.0 mg/kg/injection, schedule: Q04DX003 (ip), vehicle: distilled water + Tween-80) was 0 of 6 and the survivor count (T/C endpoint: mean survival time, dose: 200.0 mg/kg/injection, schedule: Q04DX003 (ip), vehicle: distilled water + Tween-80) was 0 of 6. The T/C (T/C endpoint: median survival time, dose: 0.75 mg/kg/injection, schedule: Q01DX009 (ip), vehicle: saline) was 136 and 144 % of control, the T/C (T/C endpoint: median survival time, dose: 0.75 mg/kg/injection, schedule: Q01DX009 (ip), vehicle: suspension in saline) was 134 % of control and the T/C (T/C endpoint: median survival time, dose: 1.5 mg/kg/injection, schedule: Q01DX009 (ip), vehicle: suspension in saline) was 146 % of control. The T/C (T/C endpoint: median survival time, dose: 6.0 mg/kg/injection, schedule: Q01DX009 (ip), vehicle: suspension in saline) was 132 % of control, the survivor count (T/C endpoint: median survival time, dose: 12.0 mg/kg/injection, schedule: Q01DX009 (ip), vehicle: saline) was 6 of 6 and the survivor count (T/C endpoint: median survival time, dose: 24.0 mg/kg/injection, schedule: Q01DX009 (ip), vehicle: suspension in saline) was 6 of 6.

In the case of `C=C(NC(=O)C(=C)NC(=O)c1csc(C2=NC3c4csc(n4)C4NC(=O)c5csc(n5)C(C(C)(O)C(C)O)NC(=O)C5CSC(=N5)/C(=C/C)NC(=O)C(C(C)O)NC(=O)c5csc(n5)C3(CC2)NC(=O)C(C)NC(=O)C(=C)NC(=O)C(C)NC(=O)C(C(C)CC)NC2C=Cc3c(C(C)O)cc(nc3C2O)C(=O)OC4C)n1)C(N)=O` (stereo unspecified), the T/C (T/C endpoint: mean survival time, dose: 178.0 mg/kg/injection, schedule: Q04DX003 (ip), vehicle: saline) is reported as 134 % of control, the T/C (T/C endpoint: mean survival time, dose: 266.0 mg/kg/injection, schedule: Q04DX003 (ip), vehicle: saline) is reported as 126 % of control and the T/C (T/C endpoint: mean survival time, dose: 400.0 mg/kg/injection, schedule: Q04DX003 (ip), vehicle: saline) is reported as 134 % of control.

With `CCCC[P+](C)(CC[P+](C)(c1ccccc1)c1ccccc1)c1ccccc1` (stereo unspecified) the survivor count (T/C endpoint: mean survival time, dose: 25.0 mg/kg/injection, schedule: Q04DX002 (ip), vehicle: saline) was 0 of 3, the survivor count (T/C endpoint: mean survival time, dose: 50.0 mg/kg/injection, schedule: Q04DX002 (ip), vehicle: saline) was 0 of 3 and the survivor count (T/C endpoint: mean survival time, dose: 100.0 mg/kg/injection, schedule: Q04DX002 (ip), vehicle: saline) was 0 of 3.

`NC(=O)C(Cc1ccccc1)NC(=O)c1ccccc1` (stereo unspecified) was tested, and the survivor count [1] was 6 of 6 and the survivor count [2] was 2 of 6.

`O=C=NC(c1ccccc1)(c1ccccc1)c1ccccc1` was tested, and the survivor count (T/C endpoint: mean survival time, dose: 400.0 mg/kg/injection, schedule: Q04DX003 (ip), vehicle: saline with Tween-80) was 2 of 6.

For `CC(C)(CNC1CCCCC1)OC(=O)c1ccc(N)cc1`, the survivor count (T/C endpoint: mean survival time, dose: 75.0 mg/kg/injection, schedule: Q01DX001 (ip), vehicle: saline) was 3 of 6, the survivor count (T/C endpoint: mean survival time, dose: 80.0 mg/kg/injection, schedule: Q01DX001 (ip), vehicle: saline) was 0 of 6 and the survivor count (T/C endpoint: mean survival time, dose: 150.0 mg/kg/injection, schedule: Q01DX001 (ip), vehicle: saline) was 0 of 6. The survivor count (T/C endpoint: mean survival time, dose: 300.0 mg/kg/injection, schedule: Q01DX001 (ip), vehicle: saline) was 0 of 6.

In the case of `O=C(CBr)c1cccc(OC(=O)c2ccccc2)c1`, the survivor count (T/C endpoint: mean survival time, dose: 50.0 mg/kg/injection, schedule: Q01DX009 (ip), vehicle: saline with Tween-80) is reported as 2 of 6.
